From US11339419B2, “Scavenger protein(s) for improved preservation of analyte detection sensor(s) and method(s) of use thereof” (Siemens Healthcare Diagnostics Inc., priority 2017, dated 2022)
Values joined by “and” are separate entries in the source; they are usually repeats but may differ in a detail not shown here. Equal entries are not always repeated. Further values from the same series stand in other lists.

Legend:
Assay type in all cases: biochemical
[1] = test system: creatininase (BBI Solutions); assay: BBI Solutions Creatininase Enzyme Absorbance with BSA and MIT
[2] = test system: sarcosine oxidase (BBI Solutions); assay: BBI Solutions Sarcosine Oxidase Enzyme Absorbance with BSA and MIT; conditions: 37° C.
[3] = test system: sarcosine oxidase (Toyobo); assay: Toyobo Sarcosine Oxidase Enzyme Absorbance with BSA and MIT; conditions: 37° C.
[4] = test system: sarcosine oxidase (Toyobo); assay: Toyobo Sarcosine Oxidase Enzyme Absorbance with BSA and Proclin 300; conditions: Day 0; BSA 5 mg/mL only, no Proclin 300; line of 0.7% Proclin 300
From the text: Absorbance measurements of the sarcosine oxidase enzyme(s) were taken via spectrophotometer for each aqueous solution (represented as columns 1-5 in Tables 1-4—column 6 is a blank), the absorbance being directly proportional to the enzyme activity being measured-which for Tables 1-4 is sarcosine oxidase enzyme activity. Accordingly, the higher the absorbance measurement, the higher the enzyme activity of sarcosine oxidase. […] In addition, the mean values, standard deviations, and coefficients of variation are also presented for the enzyme activity/absorbance of each aqueous solution. All measurements were taken at 37° C.

[5] = Day 0, 50 ppm MIT, 50 mg/mL BSA
[6] = Day 0, 100 ppm MIT, 5 mg/mL BSA
[7] = Day 0, 100 ppm MIT, 25 mg/mL BSA
[8] = Day 0, 100 ppm MIT, 50 mg/mL BSA
[9] = Day 4, 50 ppm MIT, 25 mg/mL BSA
[10] = Day 4, 50 ppm MIT, 50 mg/mL BSA
[11] = Day 4, 100 ppm MIT, 5 mg/mL BSA
[12] = Day 4, 100 ppm MIT, 25 mg/mL BSA
[13] = Day 4, 100 ppm MIT, 50 mg/mL BSA
[14] = Day 14, 50 ppm MIT, 5 mg/mL BSA
[15] = Day 14, 50 ppm MIT, 25 mg/mL BSA
[16] = Day 14, 50 ppm MIT, 50 mg/mL BSA
[17] = Day 14, 100 ppm MIT, 5 mg/mL BSA
[18] = Day 14, 100 ppm MIT, 25 mg/mL BSA
[19] = Day 14, 100 ppm MIT, 50 mg/mL BSA

Creatininase Enzyme Absorbance [1, 5]: 0.779 and 0.748 and 0.755 and 0.766
Creatininase Enzyme Absorbance [1, 9]: 0.806 and 0.821 and 0.855
Creatininase Enzyme Absorbance [1, 18]: 0.917 and 0.892 and 0.889 and 0.911
Creatininase Enzyme Absorbance [1, 19]: 0.755 and 0.744 and 0.718
Sarcosine Oxidase Enzyme Absorbance, replicates 7-11 ([2]; Day 0, 5 mg/mL BSA only, no MIT (50 ppm MIT row)): 1.432 and 1.435 and 1.451 and 1.43
Sarcosine Oxidase Enzyme Absorbance, replicates 7-11 ([2]; Day 0, 5 mg/mL BSA only, no MIT (100 ppm MIT row)): 1.425
Sarcosine Oxidase Enzyme Absorbance, replicates 7-11 ([2]; Day 0, 25 mg/mL BSA only, no MIT (50 ppm MIT row)): 1.435 and 1.421 and 1.396 and 1.399
Sarcosine Oxidase Enzyme Absorbance, replicates 7-11 ([2]; Day 0, 25 mg/mL BSA only, no MIT (100 ppm MIT row)): 1.436
Sarcosine Oxidase Enzyme Absorbance, replicates 7-11 ([2]; Day 0, 50 mg/mL BSA only, no MIT (50 ppm MIT row)): 1.428 and 1.464 and 1.467 and 1.474
Sarcosine Oxidase Enzyme Absorbance, replicates 7-11 ([2]; Day 14, 25 mg/mL BSA only, no MIT (100 ppm MIT row)): 1.395 and 1.454 (2×) and 1.474 and 1.456
Sarcosine Oxidase Enzyme Absorbance, replicates 7-11 ([2]; Day 14, 50 mg/mL BSA only, no MIT (50 ppm MIT row)): 1.413 and 1.42 and 1.412 and 1.423 (2×)
Sarcosine Oxidase Enzyme Absorbance, solutions 1-5 [3, 5]: 1.396 and 1.415
Sarcosine Oxidase Enzyme Absorbance, solutions 1-5 [3, 7]: 1.39 and 1.415 and 1.41 and 1.434
Sarcosine Oxidase Enzyme Absorbance, solutions 1-5 [3, 8]: 1.393 and 1.406 and 1.419 and 1.417
Sarcosine Oxidase Enzyme Absorbance, solutions 1-5 [3, 15]: 1.427 and 1.41 and 1.42 and 1.457
Sarcosine Oxidase Enzyme Absorbance, solutions 1-5 [3, 17]: 0.35 and 0.353 and 0.356 and 0.347
Absorbance, solutions 7-11 [4]: 1.435 and 1.447 and 1.457
Substance: bovine serum albumin [BSA]
Creatininase Enzyme Absorbance [1, 6]: 0.839 and 0.784 and 0.778 and 0.782 and 0.797
Creatininase Enzyme Absorbance [1, 7]: 0.785 and 0.72 and 0.705 and 0.727 and 0.751
Creatininase Enzyme Absorbance [1, 8]: 0.749 and 0.669 and 0.673 and 0.678 and 0.704
Creatininase Enzyme Absorbance ([1]; Day 4, 50 ppm MIT, 5 mg/mL BSA): 0.972 and 0.953 and 0.913 and 0.948 and 0.937
Creatininase Enzyme Absorbance [1, 10]: 0.659 and 0.673 and 0.665 and 0.672 and 0.658
Creatininase Enzyme Absorbance [1, 11]: 0.919 and 0.895 and 0.917 and 0.914 and 0.954
Creatininase Enzyme Absorbance [1, 12]: 0.815 and 0.793 and 0.796 and 0.803 and 0.82
Creatininase Enzyme Absorbance [1, 13]: 0.709 and 0.7 and 0.675 and 0.691 and 0.702
Creatininase Enzyme Absorbance [1, 14]: 1.1 and 1.067 and 1.062 and 1.08 and 1.103
Creatininase Enzyme Absorbance [1, 15]: 0.946 and 0.906 and 0.898 and 0.922 and 0.928
Creatininase Enzyme Absorbance [1, 16]: 0.739 and 0.723 and 0.714 and 0.722 and 0.751
Creatininase Enzyme Absorbance [1, 17]: 1.099 and 1.043 and 1.031 and 1.064 and 1.075
Sarcosine Oxidase Enzyme Absorbance, replicates 7-11 ([2]; Day 0, 50 mg/mL BSA only, no MIT (100 ppm MIT row)): 1.406 and 1.388 and 1.393 and 1.395 and 1.403
Sarcosine Oxidase Enzyme Absorbance, replicates 7-11 ([2]; Day 4, 5 mg/mL BSA only, no MIT (50 ppm MIT row)): 1.448 and 1.472 and 1.459 and 1.441 and 1.443
Sarcosine Oxidase Enzyme Absorbance, replicates 7-11 ([2]; Day 4, 5 mg/mL BSA only, no MIT (100 ppm MIT row)): 1.342 and 1.43 and 1.424 and 1.452 and 1.382
Sarcosine Oxidase Enzyme Absorbance, replicates 7-11 ([2]; Day 4, 25 mg/mL BSA only, no MIT (50 ppm MIT row)): 1.419 and 1.431 and 1.41 and 1.38 and 1.398
Sarcosine Oxidase Enzyme Absorbance, replicates 7-11 ([2]; Day 4, 25 mg/mL BSA only, no MIT (100 ppm MIT row)): 1.371 and 1.412 and 1.423 and 1.39 and 1.398
Sarcosine Oxidase Enzyme Absorbance, replicates 7-11 ([2]; Day 4, 50 mg/mL BSA only, no MIT (50 ppm MIT row)): 1.412 and 1.555 and 1.531 and 1.48 and 1.6
Sarcosine Oxidase Enzyme Absorbance, replicates 7-11 ([2]; Day 4, 50 mg/mL BSA only, no MIT (100 ppm MIT row)): 1.386 and 1.407 and 1.412 and 1.423 and 1.401
Sarcosine Oxidase Enzyme Absorbance, replicates 7-11 ([2]; Day 14, 5 mg/mL BSA only, no MIT (50 ppm MIT row)): 1.433 and 1.422 and 1.429 and 1.438 and 1.435
Sarcosine Oxidase Enzyme Absorbance, replicates 7-11 ([2]; Day 14, 5 mg/mL BSA only, no MIT (100 ppm MIT row)): 1.447 and 1.448 and 1.387 and 1.525 and 1.544
Sarcosine Oxidase Enzyme Absorbance, replicates 7-11 ([2]; Day 14, 25 mg/mL BSA only, no MIT (50 ppm MIT row)): 1.428 and 1.435 and 1.431 and 1.407 and 1.426
Sarcosine Oxidase Enzyme Absorbance, replicates 7-11 ([2]; Day 14, 50 mg/mL BSA only, no MIT (100 ppm MIT row)): 1.489 and 1.51 and 1.464 and 1.486 and 1.48
Sarcosine Oxidase Enzyme Absorbance, solutions 1-5 [3, 6]: 1.437 and 1.434 and 1.433 and 1.43 and 1.438
Sarcosine Oxidase Enzyme Absorbance, solutions 1-5 ([3]; Day 4, 50 ppm MIT, 5 mg/mL BSA): 0.898 and 0.904 and 0.884 and 0.886 and 0.897
Sarcosine Oxidase Enzyme Absorbance, solutions 1-5 [3, 9]: 1.409 and 1.394 and 1.393 and 1.392 and 1.395
Sarcosine Oxidase Enzyme Absorbance, solutions 1-5 [3, 10]: 1.448 and 1.395 and 1.409 and 1.475 and 1.415
Sarcosine Oxidase Enzyme Absorbance, solutions 1-5 [3, 11]: 0.952 and 0.938 and 0.967 and 0.949 and 0.972
Sarcosine Oxidase Enzyme Absorbance, solutions 1-5 [3, 12]: 1.389 and 1.375 and 1.401 and 1.379 and 1.381
Sarcosine Oxidase Enzyme Absorbance, solutions 1-5 [3, 13]: 1.412 and 1.401 and 1.39 and 1.416 and 1.405
Sarcosine Oxidase Enzyme Absorbance, solutions 1-5 [3, 14]: 0.324 and 0.328 and 0.323 and 0.332 and 0.343
Sarcosine Oxidase Enzyme Absorbance, solutions 1-5 [3, 16]: 1.474 and 1.448 and 1.445 and 1.478 and 1.48
Sarcosine Oxidase Enzyme Absorbance, solutions 1-5 [3, 18]: 1.468 and 1.449 and 1.465 and 1.427 and 1.445
Sarcosine Oxidase Enzyme Absorbance, solutions 1-5 [3, 19]: 1.46 and 1.461 and 1.467 and 1.462 and 1.475
